# Test results from patent US12324809B2, “Fluoro beta-carboline compounds” (OSSIFI THERAPEUTICS LLC, priority 2018, dated 2025).
# Some entries share one result that the patent states for a list of compounds.
# Biological target: T1, sclerostin (Homo sapiens, UniProt Q9BQB4)
# T1 construct: host or cells: human embryonic cells (the assay cells)
# T1 sequence (Q9BQB4 24-213): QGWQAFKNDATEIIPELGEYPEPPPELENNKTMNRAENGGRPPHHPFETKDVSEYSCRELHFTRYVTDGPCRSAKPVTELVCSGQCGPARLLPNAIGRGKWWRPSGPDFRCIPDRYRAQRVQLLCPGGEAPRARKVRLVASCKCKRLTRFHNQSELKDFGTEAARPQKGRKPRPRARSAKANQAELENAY
# Experiment: Modulation of sclerostin/Wnt activity: restoring Wnt3a signaling in the presence of sclerostin
# Format: cell-based
# Details: human embryonic cells
# Method: Compounds synthesized in accordance with the methods of Examples 1-14 were assayed for their ability to restore Wnt signaling in the presence of sclerostin consistent with a known sclerostin antagonist, sclerostin Mab. See, Ellies et al., J Bone Miner Res 21:1738-1749 (2006). […] The addition of a known sclerostin antagonist inhibited sclerostin inhibition of Wnt3a signaling, thus restoring Wnt3a signaling in the cell (IC100 at 10 μM) (data not shown).
row,SMILES,Restoration of Wnt3a signaling in the presence of sclerostin (in words)
1,"COc1ccc2c3ccnc(C(F)(F)F)c3n(CCN3CCOCC3)c2c1F.Cl [Example 1, 4-(2-(8-Fluoro-7-methoxy-1-(trifluoromethyl)-9H-pyrido[3,4-b]indol-9-yl)ethyl)morpholine Hydrochloride Salt]",inhibited sclerostin inhibition of Wnt3a signaling and restored Wnt3a signaling in the cell
2,"COc1cc2c(cc1F)c1ccnc(C(F)(F)F)c1n2CCN1CCOCC1.Cl [Example 2, 4-(2-(6-fluoro-7-methoxy-1-(trifluoromethyl)-9H-pyrido[3,4-b]indol-9-yl)ethyl)morpholine Hydrochloride Salt]",inhibited sclerostin inhibition of Wnt3a signaling and restored Wnt3a signaling in the cell
3,"COc1cc2c(cc1F)c1ccnc(C(F)(F)F)c1n2CCN1CCC(OC)CC1.Cl [Example 3, 6-Fluoro-7-methoxy-9-(2-(4-methoxypiperidin-1-yl)ethyl)-1-(trifluoromethyl)-9H-pyrido[3,4-b]indole Hydrochloride Salt]",inhibited sclerostin inhibition of Wnt3a signaling and restored Wnt3a signaling in the cell
4,"COc1cc2c(cc1F)c1ccnc(C(F)(F)F)c1n2CCN1CCN(C)C(=O)C1.Cl [Example 4, 4-(2-(6-Fluoro-7-methoxy-1-(trifluoromethyl)-9H-pyrido[3,4-b]indol-9-yl)ethyl)-1-methylpiperazin-2-one Hydrochloride Salt]",inhibited sclerostin inhibition of Wnt3a signaling and restored Wnt3a signaling in the cell
5,"COc1cc2c(cc1F)c1ccnc(C(F)(F)F)c1n2CCN1CC(OC(F)F)C1.Cl [Example 5, 9-(2-(3-(Difluoromethoxy)azetidin-1-yl)ethyl)-6-fluoro-7-methoxy-1-(trifluoromethyl)-9H-pyrido[3,4-b]indole Hydrochloride Salt]",inhibited sclerostin inhibition of Wnt3a signaling and restored Wnt3a signaling in the cell
6,"COc1cc2c(cc1F)c1ccnc(C(F)(F)F)c1n2CCN1CC2CCC(C1)O2.Cl [Example 6, 3-(2-(6-Fluoro-7-methoxy-1-(trifluoromethyl)-9H-pyrido[3,4-b]indol-9-yl)ethyl)-8-oxa-3-azabicyclo[3.2.1]octane Hydrochloride Salt]",inhibited sclerostin inhibition of Wnt3a signaling and restored Wnt3a signaling in the cell
7,"COc1cc2c(cc1F)c1ccnc(C(F)(F)F)c1n2CCN1C2CCC1COC2.Cl [Example 7, 8-(2-(6-Fluoro-7-methoxy-1-(trifluoromethyl)-9H-pyrido[3,4-b]indol-9-yl)ethyl)-3-oxa-8-azabicyclo[3.2.1]octane Hydrochloride Salt]",inhibited sclerostin inhibition of Wnt3a signaling and restored Wnt3a signaling in the cell
8,"COc1cc2c(cc1F)c1ccnc(C(F)(F)F)c1n2CCN1CC2CC1CO2.Cl (centres unmarked) [Example 8, 5-(2-(6-Fluoro-7-methoxy-1-(trifluoromethyl)-9H-pyrido[3,4-b]indol-9-yl)ethyl)-2-oxa-5-azabicyclo[2.2.1]heptane Hydrochloride Salt]",inhibited sclerostin inhibition of Wnt3a signaling and restored Wnt3a signaling in the cell
9,"COc1cc2c(cc1F)c1ccnc(C(F)(F)F)c1n2CCN1CC(OC)C(OC)C1.Cl (centres unmarked) [Example 9, 9-(2-(3,4-Dimethoxypyrrolidin-1-yl)ethyl)-6-fluoro-7-methoxy-1-(trifluoromethyl)-9H-pyrido[3,4-b]indole Hydrochloride Salt]",inhibited sclerostin inhibition of Wnt3a signaling and restored Wnt3a signaling in the cell
10,"COc1cc2c(cc1F)c1ccnc(C(F)(F)F)c1n2CCN1CCC(OC)C1.Cl (centres unmarked) [Example 10, 6-Fluoro-7-methoxy-9-(2-(3-methoxypyrrolidin-1-yl)ethyl)-1-(trifluoromethyl)-9H-pyrido[3,4-b]indole Hydrochloride Salt]",inhibited sclerostin inhibition of Wnt3a signaling and restored Wnt3a signaling in the cell
11,"COc1cc2c(cc1F)c1ccnc(C(F)(F)F)c1n2CCN1CC2COCC2C1.Cl (centres unmarked) [Example 11, 5-(2-(6-Fluoro-7-methoxy-1-(trifluoromethyl)-9H-pyrido[3,4-b]indol-9-yl)ethyl)hexahydro-1H-furo[3,4-c]pyrrole Hydrochloride Salt]",inhibited sclerostin inhibition of Wnt3a signaling and restored Wnt3a signaling in the cell
12,"COc1cc2c(cc1F)c1ccnc(C(F)(F)F)c1n2CCN1CCC(F)(F)CC1.Cl [Example 12, 9-(2-(4,4-Difluoropiperidin-1-yl)ethyl)-6-fluoro-7-methoxy-1-(trifluoromethyl)-9H-pyrido[3,4-b]indole Hydrochloride Salt]",inhibited sclerostin inhibition of Wnt3a signaling and restored Wnt3a signaling in the cell
13,"COc1cc2c(cc1F)c1ccnc(C(F)(F)F)c1n2CCn1cncn1.Cl [Example 13, 9-(2-(1H-1,2,4-Triazol-1-yl)ethyl)-6-fluoro-7-methoxy-1-(trifluoromethyl)-9H-pyrido[3,4-b]indole Hydrochloride Salt]",inhibited sclerostin inhibition of Wnt3a signaling and restored Wnt3a signaling in the cell
14,"COc1c(F)cc2c3ccnc(C(F)(F)F)c3n(CCN3CCOCC3)c2c1F.Cl [Example 14, 4-(2-(6,8-Difluoro-7-methoxy-1-(trifluoromethyl)-9H-pyrido[3,4-b]indol-9-yl)ethyl)morpholine Hydrochloride Salt]",inhibited sclerostin inhibition of Wnt3a signaling and restored Wnt3a signaling in the cell
